Assay results taken from patent publication US9416173B2 (priority 2011, dated 2016).

How the values were obtained:
[1] = general procedure: Fmoc solid-phase peptide synthesis; NovaSyn TGA; settings: whole synthesis
[2] = general procedure: Fmoc solid-phase peptide synthesis; NovasynTG

AcYGKDVKDLFDYAQE(SEQ ID NO:1)-TEG-K(SATA)-OH
isolated yield [1]: 27.1%

HS(CH2)2CO-YGKDVKDLFDYAQE(SEQ ID NO:1)-TEG-K(SATA)-OH
crude mass ([2]; whole synthesis, scale 46 μmol): 40 mg
crude yield ([2]; whole synthesis, scale 46 μmol): 41%
isolated mass ([2]; whole synthesis, scale 46 μmol): 24 mg
isolated yield ([2]; whole synthesis, scale 46 μmol): 24%

βMan3-S(CH2)2CO-YGKDVKDLFDYAQE(SEQ ID NO:1)-TEG-K(SATA)-OH
conjugation yield ([2]; conjugation step): 69%
